Some entries share one result that the patent states for a list of compounds.
Tests used:
[1] = tested on: LPS-stimulated TNFalpha production in human whole blood; experiment: LPS-stimulated cytokine production in human whole blood; type: cell-based; settings: LPS 50 ng/ml final, 4 hour incubation, ELISA, result in words
[2] = tested on: TNF-stimulated IL8 production by human neutrophils; experiment: TNF-stimulated IL-8 production from human neutrophils; type: cell-based; settings: TNF 100 ng/ml, about 20 hrs, screened up to 100 nM; result in words;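 also: IL-8 in cell-free supernatant quantified by sandwich ELISA, inhibition calculated against a compound-free control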

Structure (SMILES) | activity (IC50) against LPS-stimulated cytokine production in human whole blood [1] | activity (IC50) against TNF-stimulated IL-8 production from human neutrophils [2]
Cc1ccc(C(=O)NC2CCCC2)cc1-c1nc(NC2CC(C)(C)NC(C)(C)C2)nc2c1ccc(=O)n2-c1c(F)cccc1F [Example 64, N-cyclopentyl-3-{8-(2,6-difluorophenyl)-7-oxo-2-[(2,2,6,6-tetramethyl-4-piperidinyl)amino]-7,8-dihydropyrido[2,3-d]pyrimidin-4-yl}-4-methylbenzamide] | active | active
Cc1ccc(C(=O)NCc2ccccc2)cc1-c1nc(NC2CC(C)(C)NC(C)(C)C2)nc2c1ccc(=O)n2-c1c(F)cccc1F [Example 65, 3-{8-(2,6-difluorophenyl)-7-oxo-2-[(2,2,6,6-tetramethyl-4-piperidinyl)amino]-7,8-dihydropyrido[2,3-d]pyrimidin-4-yl}-4-methyl-N-(phenylmethyl)benzamide] | active | active
Cc1ccc(C(=O)NC(C)C)cc1-c1nc(N2CCC(N)CC2)nc2c1ccc(=O)n2-c1c(F)cccc1F [Example 68, 3-[2-(4-amino-1-piperidinyl)-8-(2,6-difluorophenyl)-7-oxo-7,8-dihydropyrido[2,3-d]pyrimidin-4-yl]-4-methyl-N-(1-methylethyl)benzamide] | active | active
CCCNC(=O)c1ccc(C)c(-c2nc(N3CCC(N)CC3)nc3c2ccc(=O)n3-c2c(F)cccc2F)c1 [Example 69, 3-[2-(4-amino-1-piperidinyl)-8-(2,6-difluorophenyl)-7-oxo-7,8-dihydropyrido[2,3-d]pyrimidin-4-yl]-4-methyl-N-propylbenzamide] | active | active
Cc1ccc(C(=O)NC2CCCC2)cc1-c1nc(N2CCC(N)CC2)nc2c1ccc(=O)n2-c1c(F)cccc1F [Example 70, 3-[2-(4-amino-1-piperidinyl)-8-(2,6-difluorophenyl)-7-oxo-7,8-dihydropyrido[2,3-d]pyrimidin-4-yl]-N-cyclopentyl-4-methylbenzamide] | active | active
Cc1ccc(C(=O)NCc2ccccc2)cc1-c1nc(N2CCC(N)CC2)nc2c1ccc(=O)n2-c1c(F)cccc1F [Example 71, 3-[2-(4-amino-1-piperidinyl)-8-(2,6-difluorophenyl)-7-oxo-7,8-dihydropyrido[2,3-d]pyrimidin-4-yl]-4-methyl-N-(phenylmethyl)benzamide] | active | active
Cc1ccc(C(=O)Nc2ccc(F)cc2)cc1-c1nc(N2CCC(N)CC2)nc2c1ccc(=O)n2-c1c(F)cccc1F [Example 72, 3-[2-(4-amino-1-piperidinyl)-8-(2,6-difluorophenyl)-7-oxo-7,8-dihydropyrido[2,3-d]pyrimidin-4-yl]-N-(4-fluorophenyl)-4-methylbenzamide] | active | active
Cc1ccc(C(=O)Nc2nccs2)cc1-c1nc(N2CCC(N)CC2)nc2c1ccc(=O)n2-c1c(F)cccc1F [Example 73, 3-[2-(4-amino-1-piperidinyl)-8-(2,6-difluorophenyl)-7-oxo-7,8-dihydropyrido[2,3-d]pyrimidin-4-yl]-4-methyl-N-1,3-thiazol-2-ylbenzamide] | active | active
CCCNC(=O)c1ccc(C)c(-c2nc(NCc3ncc[nH]3)nc3c2ccc(=O)n3-c2c(F)cccc2F)c1 [Example 75, 3-{8-(2,6-difluorophenyl)-2-[(1H-imidazol-2-ylmethyl)amino]-7-oxo-7,8-dihydropyrido[2,3-d]pyrimidin-4-yl}-4-methyl-N-propylbenzamide] | active | active

Reference: patent US20100144755A1 (Glaxo Group Limited, priority 2006, published 2010)
